From PubChem BioAssay record AID1224904 (Broad Institute, 2016).

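293T-iDUX4 cells carrying a ZSCAN4-driven Gaussia luciferase and a tet-on Italica luciferase control; the gap between the two luminescence signals is read after 24 h. The test concentration is not given here. Percent difference between the Gaussia and Italica channels; more negative values mean more selective suppression of the DUX4 reporter, and higher values mean less activity.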

Values are in %. How 0% and 100% were set is not given here. Common to all entries: measured here: selective DUX4 reporter inhibition. This is a side read-out of the assay, for part of the compounds, not drawn at random.

{"compound": "O=C(c1ccncc1)N1CC(=O)N2[C@H](C1)[C@@H](c1ccc(C#CCC3CCCC3)cc1)[C@@H]2CO", "Gaussia minus Italica difference (%)": "0.0195"}
{"compound": "COc1cccc(-c2ccc([C@H]3[C@@H](CO)N4CCCCN(C(=O)c5ccc6c(c5)OCO6)C[C@H]34)cc2)c1", "Gaussia minus Italica difference (%)": "-0.3604"}
{"compound": "COCC#Cc1ccc([C@@H]2[C@@H](CO)N3CCCCN(Cc4ccccc4F)C[C@H]23)cc1", "Gaussia minus Italica difference (%)": "-16.01"}
{"compound": "O=C(C[C@H]1CC[C@H]2[C@@H](COC[C@H](O)CN2Cc2ccccc2)O1)NCc1ccccc1Cl", "Gaussia minus Italica difference (%)": "-6.633"}
{"compound": "Cc1cccc(-c2ccc([C@H]3[C@H]4CN(S(=O)(=O)c5ccccc5F)CCCCN4[C@H]3CO)cc2)c1", "Gaussia minus Italica difference (%)": "-21.49"}
{"compound": "C[C@H](CO)N1C[C@H](C)[C@H](CN(C)S(=O)(=O)c2ccsc2)OCc2ccccc2-c2ccccc2C1=O", "Gaussia minus Italica difference (%)": "-3.024"}
{"compound": "O=C(C[C@@H]1C[C@@H]2c3cc(NC(=O)Nc4ccc(C(F)(F)F)cc4)ccc3O[C@@H]2[C@@H](CO)O1)NCCc1ccccc1", "Gaussia minus Italica difference (%)": "0.9266"}
{"compound": "COc1ccc(-c2ccc(C3[C@@H]4CN(S(=O)(=O)c5ccccc5C)C[C@H]3N4)cc2)cc1", "stereo": "stereo not given in full", "Gaussia minus Italica difference (%)": "-4.312"}
{"compound": "C/C=C/c1ccc([C@@H]2[C@H](CO)N3CCCCN(S(=O)(=O)c4ccc(F)cc4)C[C@@H]23)cc1", "Gaussia minus Italica difference (%)": "-20.19"}
{"compound": "O=C(c1ccc(F)cc1)N1CC(=O)N2[C@@H](CO)[C@H](c3ccc(C#CC4CCCCC4)cc3)[C@@H]2C1", "Gaussia minus Italica difference (%)": "-3.984"}
{"compound": "CCCNC(=O)N1CC2(CCN(C(=O)C3CCCCC3)CC2)c2c([nH]c3cc(OC)ccc23)[C@@H]1CO", "Gaussia minus Italica difference (%)": "-5.232"}
{"compound": "COc1cccc(-c2ccc(C3[C@@H]4CN(Cc5ccccn5)C[C@H]3N4)cc2)c1", "stereo": "stereo not given in full", "Gaussia minus Italica difference (%)": "-18.31"}
{"compound": "Cc1cccc(S(=O)(=O)N2CCCCN3[C@H](CO)[C@@H](c4ccc(C#C[C@H](C)O)cc4)[C@H]3C2)c1", "Gaussia minus Italica difference (%)": "6.371"}
{"compound": "COc1ccccc1-c1ccc2c(c1)[C@H]1[C@H](CCN1S(=O)(=O)c1cccc(F)c1)[C@@H](CO)N2", "Gaussia minus Italica difference (%)": "41.95"}
{"compound": "CN1c2ccc(-c3ccc(C#N)cc3)cc2[C@H]2[C@H](CCN2C(=O)c2cccc(F)c2)[C@@H]1CO", "Gaussia minus Italica difference (%)": "-14.14"}
{"compound": "O=C(c1ccc(F)cc1)N1CC(=O)N2[C@H](CO)[C@@H](c3ccc(C#CCC4CCCC4)cc3)[C@@H]2C1", "Gaussia minus Italica difference (%)": "-5.971"}
{"compound": "COc1cccc(S(=O)(=O)Nc2ccc3c(c2)[C@@H]2C[C@@H](CC(=O)NCc4ccc(Cl)cc4)O[C@H](CO)[C@@H]2O3)c1", "Gaussia minus Italica difference (%)": "2.039"}
{"compound": "O=C(CC1CC1)N1CC(=O)N2[C@H](CO)[C@@H](c3ccc(C#Cc4cccc(F)c4)cc3)[C@@H]2C1", "Gaussia minus Italica difference (%)": "-7.854"}
{"compound": "COc1ccccc1S(=O)(=O)N(C)C[C@@H]1Oc2cc(C#CCC(C)C)ccc2S(=O)(=O)N([C@H](C)CO)C[C@@H]1C", "Gaussia minus Italica difference (%)": "-0.6637"}
{"compound": "O=C(c1ccccc1F)N1CC[C@@H]2[C@H]1c1cc(C#Cc3ccccc3F)ccc1N[C@@H]2CO", "Gaussia minus Italica difference (%)": "-11.31"}
{"compound": "O=C(Nc1ccc2c(c1)[C@@H]1C[C@@H](CC(=O)N3CCc4ccccc4C3)O[C@H](CO)[C@@H]1O2)Nc1ccccc1F", "Gaussia minus Italica difference (%)": "-20.81"}
{"compound": "OC[C@@H]1[C@@H](c2ccc(/C=C/c3ccccc3)cc2)[C@@H]2CN(Cc3ccncc3)CCCCN12", "Gaussia minus Italica difference (%)": "-9.077"}
{"compound": "O=C(C[C@@H]1C[C@@H]2c3cc(NC(=O)Cc4ccncc4)ccc3O[C@@H]2[C@H](CO)O1)NCc1ccc(-c2ccccc2)cc1", "Gaussia minus Italica difference (%)": "-16.18"}
{"compound": "C/C=C/c1ccc([C@H]2[C@@H](CO)N(CCC(F)(F)F)C23CN(C(=O)CC2CC2)C3)cc1", "Gaussia minus Italica difference (%)": "-10.84"}
{"compound": "Cc1cccc(S(=O)(=O)N2CCCCN3[C@H](C2)[C@@H](c2ccc(C#C[C@H](C)O)cc2)[C@@H]3CO)c1", "Gaussia minus Italica difference (%)": "3.761"}
{"compound": "O=C(Nc1ccc(F)cc1)N1CCCCN2[C@H](CO)[C@H](c3ccc(-c4cccc(F)c4)cc3)[C@@H]2C1", "Gaussia minus Italica difference (%)": "-7.145"}
{"compound": "O=C(c1ccc2c(c1)OCO2)N1CC[C@H]2[C@H](CO)Nc3ccc(-c4ccc(F)cc4)cc3[C@H]21", "Gaussia minus Italica difference (%)": "-5.019"}
{"compound": "CCCC#Cc1ccc([C@@H]2[C@H](CO)N3C(=O)CN(S(=O)(=O)c4ccccc4C)C[C@@H]23)cc1", "Gaussia minus Italica difference (%)": "-21.31"}
{"compound": "COc1cccc(S(=O)(=O)N2CC3(CCN(C)CC3)c3c(n(C)c4cc(OC)ccc34)[C@H]2CO)c1", "Gaussia minus Italica difference (%)": "-14.15"}
{"compound": "O=C(C1CCC1)N1[C@@H](CO)[C@@H](c2ccccc2)C12CN(CCC(F)(F)F)C2", "Gaussia minus Italica difference (%)": "-14.8"}
{"compound": "CO[C@@H]1CN(C)C(=O)c2ccc(NC(=O)NC(C)C)cc2OC[C@H](C)N(Cc2ccc(-c3ccccn3)cc2)C[C@@H]1C", "Gaussia minus Italica difference (%)": "-12.96"}
{"compound": "C[C@H]1CN([C@@H](C)CO)C(=O)c2c(c3ccccc3n2C)-c2ccccc2CO[C@H]1CN(C)C(=O)[C@@H](Cc1ccccc1)N(C)C", "Gaussia minus Italica difference (%)": "6.994"}
{"compound": "O=C(CC1CC1)N1[C@@H](CO)[C@@H](c2ccccc2)C12CN(S(=O)(=O)c1ccccc1)C2", "Gaussia minus Italica difference (%)": "-9.131"}
{"compound": "CCCN1CCC2(CC1)CN(Cc1ccccc1OC)[C@@H](CO)c1c2c2ccc(OC)cc2n1C", "Gaussia minus Italica difference (%)": "2.369"}
{"compound": "C[C@@H]1CN([C@@H](C)CO)S(=O)(=O)c2ccc(C3=CCCCC3)cc2O[C@@H]1CN(C)Cc1ccccc1F", "Gaussia minus Italica difference (%)": "-2.591"}
{"compound": "O=C(C1CCCC1)N1CC2(C1)[C@H](c1ccccc1)[C@H](CO)N2Cc1ccccc1F", "Gaussia minus Italica difference (%)": "-14.91"}
{"compound": "O=C(C[C@@H]1CC[C@H]2[C@@H](COC[C@@H](O)CN2Cc2cccc(-c3ccncc3)c2)O1)N1CCN(c2ccccc2)CC1", "Gaussia minus Italica difference (%)": "-8.207"}
{"compound": "O=C(Nc1ccc2c(c1)[C@@H]1C[C@@H](CC(=O)N3CCc4ccccc4C3)O[C@H](CO)[C@@H]1O2)c1ccc2c(c1)OCO2", "Gaussia minus Italica difference (%)": "-1.94"}
{"compound": "CC(C)CC#Cc1ccc([C@@H]2[C@@H](CO)N3C(=O)CN(S(=O)(=O)c4cccc(F)c4)C[C@@H]23)cc1", "Gaussia minus Italica difference (%)": "0.2452"}